# Measurements reported in PubChem BioAssay AID186 (DTP/NCI, 2004).
# The mice bore no tumour; each value counts animals alive of those treated. Survivors were counted at the toxicity check, usually on the fifth day, unless a day is given; later deaths do not show. Schedule codes are those of the source, taken here to give the interval after Q, in days (D) or hours (H), and the number of doses after X. Brackets with × stand for listed records that agree. Some doses were run more than once; their values stand side by side, smallest first.
# System: B6D2F1 mice, nontumored toxicity test, survival
# Assay: NCI In Vivo Anticancer Drug Screen. Data for tumor model Nontumored Animals (Toxicity Test) in B6D2F1 (BDF1) mice
smiles,measurement,setting,value
O=P1(N(CCCl)CCCl)NCCCO1 (centres undefined),survivor count,"dose: 6.25 mg/kg/injection, schedule: Q01DX017 (ip), vehicle: saline",8 of 8
same,survivor count,"dose: 10.0 mg/kg/injection, schedule: Q04DX003 (ip), vehicle: saline",5 of 5
same,survivor count,"dose: 12.5 mg/kg/injection, schedule: Q01DX009 (ip), vehicle: saline",8 of 8
same,survivor count,"dose: 12.5 mg/kg/injection, schedule: Q01DX017 (ip), vehicle: saline",8 of 8
same,survivor count,"dose: 18.0 mg/kg/injection, schedule: Q01DX009 (ip), vehicle: saline",5 of 5
same,survivor count,"dose: 20.0 mg/kg/injection, schedule: Q04DX003 (ip), vehicle: saline",5 of 5
same,survivor count,"dose: 25.0 mg/kg/injection, schedule: Q01DX009 (ip), vehicle: saline",8 of 8
same,survivor count,"dose: 25.0 mg/kg/injection, schedule: Q01DX017 (ip), vehicle: saline",8 of 8
same,survivor count,"dose: 25.0 mg/kg/injection, schedule: Q04DX003 (ip), vehicle: saline",8 of 8
same,survivor count,"dose: 25.0 mg/kg/injection, schedule: Q04DX005 (ip), vehicle: saline",8 of 8
same,survivor count,"dose: 25.0 mg/kg/injection, schedule: Q08DX002 (ip), vehicle: saline",6 of 6
same,survivor count,"dose: 25.0 mg/kg/injection, schedule: Q08DX003 (ip), vehicle: saline",6 of 6
same,survivor count,"dose: 30.0 mg/kg/injection, schedule: Q01DX009 (ip), vehicle: saline",5 of 5
same,survivor count,"dose: 40.0 mg/kg/injection, schedule: Q04DX003 (ip), vehicle: saline",5 of 5
same,survivor count,"dose: 50.0 mg/kg/injection, schedule: Q01DX001 (ip), vehicle: saline",4 of 4 and 8 of 8
same,survivor count,"dose: 50.0 mg/kg/injection, schedule: Q01DX009 (ip), vehicle: saline",5 of 5 and 8 of 8
same,survivor count,"dose: 50.0 mg/kg/injection, schedule: Q01DX017 (ip), vehicle: saline",8 of 8
same,survivor count,"dose: 50.0 mg/kg/injection, schedule: Q04DX003 (ip), vehicle: saline",8 of 8
same,survivor count,"dose: 50.0 mg/kg/injection, schedule: Q04DX005 (ip), vehicle: saline",8 of 8
same,survivor count,"dose: 50.0 mg/kg/injection, schedule: Q08DX002 (ip), vehicle: saline",6 of 6 and 8 of 8
same,survivor count,"dose: 50.0 mg/kg/injection, schedule: Q08DX003 (ip), vehicle: saline",6 of 6 and 8 of 8
same,survivor count,"dose: 65.0 mg/kg/injection, schedule: Q07DX004 (ip), vehicle: saline",8 of 8
same,survivor count,"dose: 72.0 mg/kg/injection, schedule: Q01DX001 (ip), vehicle: saline",5 of 5
same,survivor count,"dose: 75.0 mg/kg/injection, schedule: Q01DX001 (ip), vehicle: saline",10 of 10 and 4 of 4
same,survivor count,"dose: 80.0 mg/kg/injection, schedule: Q04DX003 (ip), vehicle: saline",5 of 5
same,survivor count,"dose: 83.0 mg/kg/injection, schedule: Q01DX009 (ip), vehicle: saline",5 of 5
same,survivor count,"dose: 100.0 mg/kg/injection, schedule: Q01DX001 (ip), vehicle: saline","10 of 10, 4 of 4, 8 of 8"
same,survivor count,"dose: 100.0 mg/kg/injection, schedule: Q01DX009 (ip), vehicle: saline",8 of 8
same,survivor count,"dose: 100.0 mg/kg/injection, schedule: Q04DX003 (ip), vehicle: saline",8 of 8
same,survivor count,"dose: 100.0 mg/kg/injection, schedule: Q04DX005 (ip), vehicle: saline",8 of 8
same,survivor count,"dose: 100.0 mg/kg/injection, schedule: Q08DX002 (ip), vehicle: saline",6 of 6 and 8 of 8
same,survivor count,"dose: 100.0 mg/kg/injection, schedule: Q08DX003 (ip), vehicle: saline",6 of 6 and 8 of 8
same,survivor count,"dose: 108.0 mg/kg/injection, schedule: Q01DX001 (ip), vehicle: saline","5 of 6, 6 of 6, 8 of 8"
same,survivor count,"dose: 108.0 mg/kg/injection, schedule: Q07DX004 (ip), vehicle: saline",8 of 8
same,survivor count,"dose: 120.0 mg/kg/injection, schedule: Q01DX001 (ip), vehicle: saline",5 of 5
same,survivor count,"dose: 133.0 mg/kg/injection, schedule: Q01DX001 (ip), vehicle: saline",10 of 10 (2×)
same,survivor count,"dose: 137.0 mg/kg/injection, schedule: Q01DX001 (ip), vehicle: saline",10 of 10
same,survivor count,"dose: 150.0 mg/kg/injection, schedule: Q01DX001 (ip), vehicle: saline",10 of 10 and 4 of 4
same,survivor count,"dose: 160.0 mg/kg/injection, schedule: Q04DX003 (ip), vehicle: saline",5 of 5
same,survivor count,"dose: 180.0 mg/kg/injection, schedule: Q01DX001 (ip), vehicle: saline","2 of 6, 3 of 8, 5 of 6, 8 of 8"
same,survivor count,"dose: 180.0 mg/kg/injection, schedule: Q07DX004 (ip), vehicle: saline",8 of 8
same,survivor count,"dose: 200.0 mg/kg/injection, schedule: Q01DX001 (ip), vehicle: saline","10 of 10 (2×), 4 of 4, 5 of 5, 8 of 8, 9 of 9 (2×)"
same,survivor count,"dose: 200.0 mg/kg/injection, schedule: Q04DX003 (ip), vehicle: saline",8 of 8
same,survivor count,"dose: 200.0 mg/kg/injection, schedule: Q04DX005 (ip), vehicle: saline",8 of 8
same,survivor count,"dose: 200.0 mg/kg/injection, schedule: Q08DX002 (ip), vehicle: saline",8 of 8
same,survivor count,"dose: 200.0 mg/kg/injection, schedule: Q08DX003 (ip), vehicle: saline",8 of 8
same,survivor count,"dose: 209.0 mg/kg/injection, schedule: Q01DX001 (ip), vehicle: saline",10 of 10
same,survivor count,"dose: 250.0 mg/kg/injection, schedule: Q01DX001 (ip), vehicle: saline",10 of 10
same,survivor count,"dose: 256.0 mg/kg/injection, schedule: Q01DX001 (sc), vehicle: saline",6 of 6
same,survivor count,"dose: 300.0 mg/kg/injection, schedule: Q01DX001 (ip), vehicle: saline","3 of 8, 7 of 8, 9 of 10, 10 of 10 (2×), 4 of 4, 6 of 6, 8 of 8"
same,survivor count,"dose: 300.0 mg/kg/injection, schedule: Q07DX004 (ip), vehicle: saline",8 of 8
same,survivor count,"dose: 312.0 mg/kg/injection, schedule: Q01DX001 (ip), vehicle: saline",10 of 10
same,survivor count,"dose: 320.0 mg/kg/injection, schedule: Q01DX001 (sc), vehicle: saline",6 of 6
same,survivor count,"dose: 333.0 mg/kg/injection, schedule: Q01DX001 (ip), vehicle: saline",5 of 5
same,survivor count,"dose: 350.0 mg/kg/injection, schedule: Q01DX001 (ip), vehicle: saline","8 of 9, 9 of 10, 10 of 10"
same,survivor count,"dose: 375.0 mg/kg/injection, schedule: Q01DX001 (ip), vehicle: saline",10 of 10
same,survivor count,"dose: 400.0 mg/kg/injection, schedule: Q01DX001 (ip), vehicle: saline","10 of 10, 4 of 4, 8 of 8"
same,survivor count,"dose: 400.0 mg/kg/injection, schedule: Q01DX001 (sc), vehicle: saline",5 of 6
same,survivor count,"dose: 400.0 mg/kg/injection, schedule: Q08DX002 (ip), vehicle: saline",8 of 8
same,survivor count,"dose: 400.0 mg/kg/injection, schedule: Q08DX003 (ip), vehicle: saline",8 of 8
same,survivor count,"dose: 499.0 mg/kg/injection, schedule: Q01DX001 (ip), vehicle: saline",8 of 9 and 10 of 10
same,survivor count,"dose: 500.0 mg/kg/injection, schedule: Q01DX001 (ip), vehicle: saline","0 of 8, 2 of 6, 3 of 8, 4 of 8, 5 of 8"
same,survivor count,"dose: 500.0 mg/kg/injection, schedule: Q01DX001 (sc), vehicle: saline",0 of 6
same,survivor count,"dose: 560.0 mg/kg/injection, schedule: Q01DX001 (ip), vehicle: saline",2 of 4 and 6 of 8
same,survivor count,"dose: 600.0 mg/kg/injection, schedule: Q01DX001 (ip), vehicle: saline",2 of 3
same,survivor count,"dose: 625.0 mg/kg/injection, schedule: Q01DX001 (sc), vehicle: saline",1 of 6
O=C(O)O,survivor count,"dose: 400.0 mg/kg/injection, schedule: Q06HX036 (ip), vehicle: water",10 of 10
same,survivor count,"dose: 800.0 mg/kg/injection, schedule: Q06HX036 (ip), vehicle: water",9 of 10
same,survivor count,"dose: 1600.0 mg/kg/injection, schedule: Q06HX036 (ip), vehicle: water",8 of 10
